In PMC8468827:
Results are given in words; binding and its absence hold for the method and conditions named. In cells and extracts the contact can be indirect. Some binding calls cover weakened binding; strength is not graded here. For some of these results: Where a sequence is shown, tags or fusion partners need not be part of it.

Protein sequences, listed by entry. Tags and fused reporters are not part of them.
UniProt Q9VQ93: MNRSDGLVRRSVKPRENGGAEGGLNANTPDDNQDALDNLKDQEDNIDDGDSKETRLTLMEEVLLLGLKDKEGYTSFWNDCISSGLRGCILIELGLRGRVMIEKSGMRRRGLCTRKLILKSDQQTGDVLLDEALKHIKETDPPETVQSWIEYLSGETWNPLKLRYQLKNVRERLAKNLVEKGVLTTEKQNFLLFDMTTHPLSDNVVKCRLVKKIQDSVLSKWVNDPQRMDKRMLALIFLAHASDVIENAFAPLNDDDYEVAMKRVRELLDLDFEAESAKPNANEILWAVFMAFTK
UniProt O18332: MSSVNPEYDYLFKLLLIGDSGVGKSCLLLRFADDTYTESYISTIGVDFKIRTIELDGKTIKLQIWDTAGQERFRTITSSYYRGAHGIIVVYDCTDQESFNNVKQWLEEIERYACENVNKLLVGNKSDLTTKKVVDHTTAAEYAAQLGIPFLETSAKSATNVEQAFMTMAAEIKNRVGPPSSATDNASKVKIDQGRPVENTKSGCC

B1: αCOP (protein, UniProt Q9W0B8 1-1234)
chain: MLTNFESKSARVKGLSFHPKRPWILVSLHSGVIQLWDYRMHTLLEKFDEHDGPVRGVAFHQQMPLFVSGGDDYKIKVWNYKQRRCIFTLLAHLDYVRTVAFHHEYPWILSASDDQTIRIWNWQSRNCICVLTGHNHYVMCAQFHPTEDQIVSASLDQTVRVWDISGLRKKNVAPGPGGLDDHLKGHPGATDLFGQADAVVKHVLEGHDRGVNWASFHPTLPLIVSGADDRLVKLWRMNEYKAWEVDTCRGHYNNVSSVLFHPRQDLILSNGEDRSIRVWDMTKRQCLFTFRRDNERFWILTAHPTLNLFAAGHDGGMVVFKLERERPAYAVHGNILYYVKERFLRKLDFTTTKDTVVMQLRPGKSPVYSMSYNPALNAVLICTRTNNLENSTYDLCQIPKDTESQSESDSKRSSGITAIWVARNRFAVLDRNQQLVIKNFKNEVTKKLPTFCEEIFYAGTGMLLIRDPEFVTLYEVQRLVSVGSIKLAKCRYVVWSPDMSLVALLCKHSVTICDRRLQYLCTVQENCRVKSGAWDESGVFIYTTSNHIKYAITNGDHGIIRTLDLPIYLTRVKGNQVFCLDRECRTRVLHIDPTEYKFKLALIQRKYDEVLHMVRNARLVGQSIIAYLQQKGYPEVALHFVKDEKTRFGLALECGNIEIALEAAKALDDKDCWDRLGQSALLQGNHQVVEMCYQRTKNFDKLSFLYLITGNLEKLKKMNKIAEIRKDVSAQYQGALLLGDVKERVNILKNCGQLSLAYLTAATHGFDELTESLGESITSQGNSLPEVNPNAQLLQPPVPIQQLETNWPLLSVSKGFFEGAMVTRAGSSATARQALNINADAALLDEHNGGGDGWGADADLGLDEDGDDEMHDALSNDGDGGAGGEEGAGWDVGDDDLVVPEELASKIKASALDSNYYAAPNKGLSPAQQWANNSPLVLDHVKAGSFETAFRLLHDQLGVVNFQPFKTLFLQNYACSRTSYTANPNLQSLSGYPLRNYSETNIKLQRPAVGIKLNDLVARLQAGYQLTTSGKFSEAVEKFHSILISIPLLVVDTKLDAAEAQQLLRICAEYIVGLKMETVRKGMPKSTLEEQKRLCEMAAYFTHCKLQPVHQILTLRTALNMFFKLKNYKTAASFARRLLELAPRPDVAQQVRKILQACEVNPVDEHQLQYEEFNPFTICGISWKPLYRGKPEVTCPFCSSSFDPQFKGNLCTVCEVSQIGKDSIGLRISNLQFR
B2: δCOP-HA (protein, UniProt Q9W555 1-532)
chain: MVLIAAAVCTKNGKVILSRQFVEMTKARIEGLLAAFPKLMTAGKQHTYVETDSVRYVYQPMEKLYMLLITTKASNILEDLETLRLFSKVIPEYSHSLDEKEIVENAFNLIFAFDEIVALGYRESVNLAQIKTFVEMDSHEEKVYQAVRQTQERDARQKMREKAKELQRQRMEASKRGGPSLGGIGSRSGGFSADGIGSSGVSSSSGASSANTGITSIDVDTKSKAAASKPASRNALKLGGKSKDVDSFVDQLKNEGEKIANLAPAAPAGGSSAAASASAAAKAAIASDIHKESVHLKIEDKLVVRLGRDGGVQQFENSGLLTLRITDEAYGRILLKLSPNHTQGLQLQTHPNVDKELFKSRTTIGLKNLGKPFPLNTDVGVLKWRFVSQDESAVPLTINCWPSDNGEGGCDVNIEYELEAQQLELQDVAIVIPLPMNVQPSVAEYDGTYNYDSRKHVLQWHIPIIDAANKSGSMEFSCSASIPGDFFPLQVSFVSKTPYAGVVAQDVVQVDSEAAVKYSSESILFVEKYEIV
B3: Shibire (protein, UniProt P27619 1-877)
chain: MDSLITIVNKLQDAFTSLGVHMQLDLPQIAVVGGQSAGKSSVLENFVGKDFLPRGSGIVTRRPLILQLINGVTEYGEFLHIKGKKFSSFDEIRKEIEDETDRVTGSNKGISNIPINLRVYSPHVLNLTLIDLPGLTKVAIGDQPVDIEQQIKQMIFQFIRKETCLILAVTPANTDLANSDALKLAKEVDPQGVRTIGVITKLDLMDEGTDARDILENKLLPLRRGYIGVVNRSQKDIEGRKDIHQALAAERKFFLSHPSYRHMADRLGTPYLQRVLNQQLTNHIRDTLPGLRDKLQKQMLTLEKEVEEFKHFQPGDASIKTKAMLQMIQQLQSDFERTIEGSGSALVNTNELSGGAKINRIFHERLRFEIVKMACDEKELRREISFAIRNIHGIRVGLFTPDMAFEAIVKRQIALLKEPVIKCVDLVVQELSVVVRMCTAKMSRYPRLREETERIITTHVRQREHSCKEQILLLIDFELAYMNTNHEDFIGFANAQNKSENANKTGTRQLGNQVIRKGHMVIQNLGIMKGGSRPYWFVLTSESISWYKDEDEKEKKFMLPLDGLKLRDIEQGFMSMSRRVTFALFSPDGRNVYKDYKQLELSCETVEDVESWKASFLRAGVYPEKQETQENGDESASEESSSDPQLERQVETIRNLVDSYMKIVTKTTRDMVPKAIMMLIINNAKDFINGELLAHLYASGDQAQMMEESAESATRREEMLRMYRACKDALQIIGDVSMATVSSPLPPPVKNDWLPSGLDNPRLSPPSPGGVRGKPGPPAQSSLGGRNPPLPPSTGRPAPAIPNRPGGGAPPLPGGRPGGSLPPPMLPSRVSGAVGGAIVQQSGANRYVPESMRGQVNQAVGQAAINELSNAFSSRFK
B4: SH3PX1 (protein, UniProt Q9NCC3 1-565)
chain: MTSYVRAMYDFTGEPGSSELSIATGDVLSVTRSDVGEGWWEGKNARGQIGLFPAAYVEVMSAAEAQKLSASGATSVPQVPDPFASPPLPRYDQTADDDGSNWDDEDDWSDDNDTYSEIGPGGQKSAGQSARAGGLSHSTSDYDNKHLPIAPNDDTQSLASVAGGTGAAGTVKKGMFAKSSDSYILGLSSTKEKIPECEMAYITQVEDSIYQWTQNHSPYSVVVASPKKESKFKGMKTFIAYQLTPSFNNISVSRRYKHFDWLHERLVDKFCLIPVPPLPDKQISGRYEEQFVEHRRVQLQEFVDWVCRHPVISKCEVWYHFLTCRDEKIWKSGKRKAERDPYMGVNYCLAISPPDKNLLHSKVDAQVELGTQFIHSMDVAVRNLNNISNDMAKRSMSQSKKEFQRIGDGLSDLAKALAIDERRAPTRNAVPLSESVGRIGGIFIGIGQAFGDQPKHDWIPLSDRLHIYRGVLNCFPDIFSTHKGAIQKRKDCEKLAGEGRMNNPQLHDVNRRTDVVSYTVLAELTHFKSERDTHLKHTLKNFIAEQIKFYQGVVARLQEASRQIE
B5: dAtx2-HA (protein, UniProt Q8SWR8 1-1084)
chain: MNNNSKRKTRPTGGGASGGISRYNSNDNSLRPTNNKAGAGGGNGGAAVRPSAQGVYNNTFFMHSATALVGSVVEVRLRSGNIYEGVFRTFSGNFDIALELPACIKSKNLPEEGKVPKHIIFPADTVVTIVAKDFDSQYATAGAFQTDGAISDKCNGARPDEKELEPWDSGANGDIDIELDSAANGWDPNEMFRKNENTFGVTSTFDDSLASYTVPLDKGDSLEFKEAEAKAEKLAAEIENNPTCRDRLDLENGDEEALFAAVERPSTEQDQRGDRGDRERNDRDREREERDRDRDRDRGNKPRGAGDFQLRETMSSDRYITKQTRSITGPQLSHVGMSSQGSGRDRDTRGDGSMMMQSGGGSGQGGSTQSTAALMLAGGLKGVGPAPSANASADSSSKYSGGSMVKRKTVPQGGKVMRNNVPTGGSNVSVSQGGNGNSVGQNKGGYQPSMGMPSQYSYQGNSQIMHGSSQYRNQSHMGGANKLNGDSNANTNKPLPQRQMRQYQGSQSNSSLNYGGEPQSLGKPVHGSHGGHPGQNSNSPPLQTAGPQQQQQQQQQQQQQQQQQQPPQQQQHQNIQPQGQNTQPARQVRTRDNQMQELRQFGQDFQLAPSNTSPPQQQQQQQQQQQQHQVQQQQQRALQQSASPPQQQQQQQQQQQHVVLHQVPQTHLHQAALSQPHYVPQQQPQQAPLPQQQHVPHHMQQKAQQQQLVETQHQHVQKQHQSQPQVQQPPPQLLQDPSQQPLPIYHTMPPPQTSPVVVTSPVLLEQPPPQPMPVVQQQQTQQLATPKPEVSPAPPSSNTTTPTGIASTPTAGVIASAGSEKTTPAAPTPTSNSATVPTGTAATAGGATGTTPVVKKHVLNPSAKPFTPRGPSTPNPSRPHTPQTPVPMTNIYTTTGGHVPPAANQPIYVMQPQHPFPPQTHPQAGQPPRLRRSNYPPMAASQMHVSASAATGQPLITAGPIPQFIQYGHAPHQQQFQSHTYAPMQMRVYPDQPQQLQFMTQTPQSTTPSPGQPHQQFHPPPQPSPAGGGPQPAFTPPTQAATYQLMCVHPQSLLANHYFPPPTPQHPQQNQQQYQIVMQQHQPQ

How the values were obtained:
[1] = target: dGOLPH3 (Drosophila melanogaster (endogenous in testes)) (UniProt Q9VQ93); assay: proximity ligation; Duolink PLA on formaldehyde-fixed larval testes (premeiotic and dividing spermatocytes); one primary antibody omitted as negative control
GST-dGOLPH3 (Drosophila) = GST-dGOLPH3 (Drosophila) (UniProt Q9VQ93); assay: pull-down; GST or GST-dGOLPH3 bound to glutathione-Sepharose 4B beads, incubated with testis lysate at 4 °C for 2 h; wash buffer 25 mM Tris-HCl pH 7.4, 150 mM NaCl, 1% NP-40, 1 mM EDTA; Western blot; only the target purified
[2] = target: dGOLPH3 (Drosophila melanogaster (endogenous in testes)) (UniProt Q9VQ93); assay: co-IP; extract of 400 adult testes expressing dAtx2-HA, rabbit anti-GOLPH3 antibody (pre-immune serum as control) and Protein A-Agarose; blotted for dGOLPH3, dFmr1 and HA

Molecule	binding [1]	binding (GST-dGOLPH3 (Drosophila))	binding [2]
Rab1 (from UniProt O18332 1-205)	binds	–	–
B1	–	binds	–
B2	–	binds	–
B3	–	binds	–
B4	–	binds	–
B5	–	binds	binds
